100 molecules from PubChem BioAssay AID540335 (Broad Institute, 2011) can be followed below.

Out of some 1,300 compounds screened, about 270 (21%) were called active.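 How the source made its calls: active means dose-dependent rise or fall in viability, either side of zero, with half-maximal concentration at or below a set limit; inconclusive means flat curve at 30 to 70% viability loss, or poor fit; inactive means flat within 30% either way, or potency beyond limit.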 The list shows a part of the results. Potency and affinity values are given separately.

This assay can be described thus: A375 melanoma cell viability reduction, dose response, counter-screen for MITF modulator project, cherry-pick samples, set 2 (AID 540335).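 Further: A375 human melanoma cells which do not depend on MITF; 0% = median of neutral control wells and 100% = double that signal.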 The conditions noted are these: CellTiter-Glo ATP luminescence, 24 h; at 35 µM (top of the series).
In the case of `COc1cccc(-c2csc3ncnc(Sc4nnnn4C)c23)c1`, the activity change, negative = decreased viability is inactive: 1.76%. As for `CC(=O)Cn1ncc(Br)c(Br)c1=O`, the activity change, negative = decreased viability was inactive: 23.4%. As for `Cc1ccc2cc(NC(=O)Cc3ccccc3)ccc2n1`, the figure is inactive: 2.73%; as for `CCOC(=O)N1C(=O)[C@](CC)(c2ccccc2)N1C(=O)OCC`, inactive: -8.51%. Consider `O=C(Nc1ccccc1Cl)Nc1cccc2cccnc12`, for which the activity change, negative = decreased viability is inactive: 4.22%.

As to `Cc1ccc(-c2c[n+](Cc3ccc(Cl)cc3)c3n2CCC3)cc1`, the activity change, negative = decreased viability is inactive: -3.64%. Take `CC(C)C(=O)NC(c1ccco1)c1ccc2cccnc2c1O` (stereo not given): the activity change, negative = decreased viability is inactive: -33.6%.

As for `CCOC(=O)c1nnn(-c2ccc([N+](=O)[O-])cc2[N+](=O)[O-])c1C`, the activity change, negative = decreased viability was inactive: -24.6%.

Consider `c1ccc(OCc2nc3ccccc3[nH]2)cc1`, for which the activity change, negative = decreased viability is inactive: -2.76%. As to `CCn1c(=O)c(C(=O)NCc2ccccc2Cl)c(O)c2ccccc21`, the activity change, negative = decreased viability is inactive: 9.07%.

Consider `O=C(CCl)Nc1ccc(-c2ccccc2)cc1`, for which the activity change, negative = decreased viability is inactive: -39.9%.

For `O=C(Nc1ccccn1)c1ccc(Br)s1`, the activity change, negative = decreased viability is inactive: -8.96%. As for `CCN1c2ccccc2NC2N=C(OC)C(c3ccccc3)C21` (stereo not given), the figure is inactive: -35.9%; as for `N/C(CS(=O)(=O)c1ccccn1)=N\OC(=O)c1ccccc1Cl`, inactive: 4.11%.

With `CCc1cc(C=NC2CCCCC2)c(O)s1`, the activity change, negative = decreased viability was inactive: -1.17%. As for `O=C(COc1ccc2c(c1)CCC2)N1CCc2ccccc21`, the figure is inactive: 8.68%. As for `Cc1ccc(SCCC(=O)N2CCC(C)CC2)cc1`, the figure is inactive: 13.1%. Next, `O=C(CCl)N(c1ccccc1)c1c[nH]c2ccccc12`: inactive: -4.62%; `COc1cc(NC(=O)COc2cc(O)c3c(c2)OC(C)(C)CC3=O)cc(OC)c1OC`: inactive: -22.9%. As for `N/C(=N\OC(=O)c1ccc([N+](=O)[O-])cc1)c1ccc(Br)cc1`, the activity change, negative = decreased viability is inactive: 9.06%.

On to `CCN1CCCC1CNC(=O)c1ccc2c(c1)NC(=O)/C(=C\c1ccc(C)cc1)S2` (stereo not given), for which the activity change, negative = decreased viability is inactive: -95.9%. On to `C=CCNC1=C(Cl)C(=O)c2ccccc2C1=O`, for which the activity change, negative = decreased viability was inactive: -14.5%. For the molecule `COc1cc(CN2CCC(C(=O)NCCC(C)C)CC2)ccc1OCc1ccccc1`, the activity change, negative = decreased viability is inactive: 5.82%. In the case of `CCn1c(=O)c([N+](=O)[O-])c(Cl)c2ccccc21`, the activity change, negative = decreased viability is inactive: 5.11%.

With `O=C(NCC1CCCCC1)C1(CC2CC(c3cccc(Br)c3)=NO2)CCNCC1` (stereo not given), the activity change, negative = decreased viability is inactive: -96.6%. As for `O=C(CSCc1c(F)cccc1F)Nc1ccccc1`, the activity change, negative = decreased viability is inactive: -2.96%.

Consider `O=C(Nc1ccc([N+](=O)[O-])cc1)c1ccccc1`, for which the activity change, negative = decreased viability is inactive: -0.714%. `CCSC1(SCC)N=C(N)C2(C#N)C(c3ccc(F)cc3)C12C#N` (stereo not given): the activity change, negative = decreased viability was inactive: -35.4%. Regarding `CC(=O)c1ccc(Sc2nnnn2-c2ccccc2)c([N+](=O)[O-])c1`, the activity change, negative = decreased viability was inactive: -8.73%. As for `N#C/C(=C\c1c[nH]c2ccccc12)C(=O)NC1CC1`, the figure is inactive: 8.06%; as for `CC(C)CC(=O)/C=C/n1c(=S)oc2ccccc21`, inactive: -7.52%; as for `CCCN(CC(=O)Nc1ccccc1C)C(=O)CCl`, inactive: -5.68%. As for `N#Cc1ccc(-c2cccnc2)nc1SCC(=O)c1ccccc1`, the figure is inactive: -3.5%.

`O=C1N=C(N2CCOCC2)S/C1=C\C=C/c1ccccc1`: the activity change, negative = decreased viability was inactive: 7.67%. Next, `O=C(Cc1ccccc1)NCC(=O)N/N=C/c1ccc([N+](=O)[O-])s1`: inactive: -18.9%; `CCOC(=O)CCc1ccc(NC(=O)/C=C/c2ccc([N+](=O)[O-])o2)cc1`: inactive: -26.9%. Turning to `COc1ccc(C(=O)/C=C/Nc2ccccn2)cc1`, the activity change, negative = decreased viability is inactive: -33.8%. As for `O=C(Nc1ccc2c(c1)OCCO2)c1cccc(Cl)c1Cl`, the activity change, negative = decreased viability is inactive: 4.29%. Next, `Cc1nc(NC(=O)C2CC2)sc1C(=O)Nc1ccccc1Cl`: inactive: 2.11%. As to `Cc1nc(-c2ccccn2)sc1C(=O)Nc1ccc(F)cc1F`, the activity change, negative = decreased viability is inactive: -3.45%. Next, `CCN(CC)CC(=O)Nc1scc2c1c(=O)oc1ccccc12`: inactive: 14.3%; `Cc1ccc(/C=N/Nc2ccc(C(=O)O)cc2)s1`: inactive: -4.8%.

As for `N#Cc1c(NC(=O)CSc2ncn[nH]2)sc2c1CCCC2`, the activity change, negative = decreased viability is inactive: 2.05%. In the case of `Cc1c(NC(=O)C(C)OC(=O)c2ccc([N+](=O)[O-])s2)c(=O)n(-c2ccccc2)n1C` (stereo not given), the activity change, negative = decreased viability is inactive: -5.1%.

With `Cc1ccc(C(=O)Nc2ccccc2Cl)cc1`, the activity change, negative = decreased viability was inactive: -3.07%. As for `CC1CCN(c2ccc(NC(=O)c3cccnc3)cc2)CC1`, the figure is inactive: 9.4%; as for `Nc1nc2n[nH]nc2c(=O)[nH]1`, inactive: -34.8%. Next, `O=[N+]([O-])c1ccc(/C=N/N=C/c2ccc([N+](=O)[O-])o2)o1`: inactive: 10.5%. Next, `CC(=O)Nc1ccc(S(=O)(=O)NC2=C(N3CCN(C)CC3)C(=O)c3ccccc3C2=O)cc1`: inactive: -33.5%.

In the case of `Cc1ccc(N2C(=O)c3ccc(N)cc3C2=O)cc1C`, the activity change, negative = decreased viability was inactive: 13.4%. For `O=C1c2ccccc2C(=O)c2c1ncn2-c1ccccc1`, the activity change, negative = decreased viability was inactive: -20.5%. Next, `CC(C)(C)N=Cc1cc(-c2ccccc2)sc1O`: inactive: 10%; `CCOC(=O)C(=Cc1ccc(-n2ccnc2)cc1)C(=O)OCC`: inactive: -21.2%; `CCc1nc2oc3ccccc3c(=O)c2cc1C(=O)OC`: inactive: -2.08%. Consider `CC(NC(=O)C12CC3CC(CC(C3)C1)C2)C(=O)NN=Cc1ccc([N+](=O)[O-])o1` (stereo not given), for which the activity change, negative = decreased viability is inactive: -13.3%.

Consider `Cn1nnnc1Sc1ncnc2scc(-c3ccc(C#N)cc3)c12`, for which the activity change, negative = decreased viability is inactive: 29.3%. As for `COCCNC(=O)/C(C#N)=C/c1cccc(/C=C(\C#N)C(=O)NCCOC)c1`, the figure is inactive: 3.41%; as for `CCN(CCO)c1ccc(N=Nc2cc(C)[nH]n2)cc1`, inactive: 1.54%; as for `O=C(Nc1ccccc1)O/N=C/c1ccc(F)cc1`, inactive: 6.51%.

On to `Cc1ccc(C)c(-n2c3nc(=O)[nH]c(=O)c-3cc3cc([N+](=O)[O-])ccc32)c1`, for which the activity change, negative = decreased viability is inactive: -5.21%. Take `COc1ccc(/C=C2\SC(=S)N(CCCC(=O)NNC(=O)c3ccccc3O)C2=O)cc1`: the activity change, negative = decreased viability is inactive: -9.23%. As for `Cc1cc(/C=C(\C#N)C(=O)O)c(C)n1CC(C)C`, the figure is inactive: 11%. Turning to `CC(=O)c1sc(N/N=C\c2ccc(N(C)C)cc2)nc1C`, the activity change, negative = decreased viability is inactive: 4.19%.

Regarding `O=[N+]([O-])c1ccccc1OCCCOc1cccc2cccnc12`, the activity change, negative = decreased viability is inactive: 6.23%. In the case of `CCOc1ccc(NC(=O)Nc2cccc(C(=O)O)c2)cc1`, the activity change, negative = decreased viability was inactive: -33.1%. Next, `CCN(CC(=O)Nc1ccc2c(c1)OCCO2)C(=O)c1ccc([N+](=O)[O-])s1`: inactive: 11.3%; `COc1cc(NC(=O)COc2ccccc2[N+](=O)[O-])ccc1NC(=O)c1cccs1`: inactive: -36.8%; `Cc1nc(NCCOc2ccccc2)sc1C(=O)Nc1ccccc1`: inactive: -4.16%. As to `O=C(CCCCl)NC(=S)Nc1ccc(N2CCOCC2)cc1`, the activity change, negative = decreased viability is inactive: 7.52%. As for `O=C(N/N=C/c1ccc([N+](=O)[O-])s1)c1ccccc1`, the figure is inactive: -15.9%; as for `O=C(NC(=S)NCc1ccccc1)c1ccccc1`, inactive: 15.5%. Next, `Cc1c(N=C2C=CC(=O)c3ccccc32)c(=O)n(-c2ccccc2)n1C`: inactive: -31%; `O=C(Nc1ccc(Cl)cc1)C1C2CCCCC21` (stereo not given): inactive: 11.6%. As to `C=CCNc1nc(-c2ccccn2)nnc1-c1ccccc1`, the activity change, negative = decreased viability is inactive: -21.7%. Next, `NC(=O)c1ccccc1NC(=O)/C=C/c1cccc(Cl)c1`: inactive: -3.81%.

Turning to `Cc1cc(Br)ccc1OCc1nc(-c2cccnc2)no1`, the activity change, negative = decreased viability is inactive: -3.95%. For `CCOc1ccc(-c2nnc(-c3cccs3)o2)cc1OCC`, the activity change, negative = decreased viability was inactive: 5.92%. As to `CCCN1CCC(NCc2cn(C)nc2-c2ccc(Oc3ccccc3)cc2)CC1`, the activity change, negative = decreased viability is inactive: -5.6%. Consider `Cc1c(C#N)c(NC(=O)CCl)n(Cc2ccccc2)c1C`, for which the activity change, negative = decreased viability was inactive: -3.06%. Next, `CCN1CCN(c2ccc(NC(=O)c3ccc([N+](=O)[O-])o3)cc2Cl)CC1`: inactive: -0.148%.

With `CCOC(=O)N1C(=O)[C@@](CC)(c2ccccc2)N1C(=O)OCC`, the activity change, negative = decreased viability was inactive: 4.08%. As for `N#C/C(=C\c1cccs1)C(=O)NCC1CCCO1` (stereo not given), the figure is inactive: 11.3%; as for `O=[N+]([O-])c1cc(C(F)(F)F)ccc1NCCc1ccccn1`, inactive: 5.9%; as for `CS(=O)(=O)c1ncc(Cl)c(C(=O)Nc2ccc(N3CCOCC3)cc2)n1`, inactive: -15.9%.

Consider `Cc1ccc(C(=O)Nc2cnc3ccccc3c2)cc1`, for which the activity change, negative = decreased viability is inactive: 0.329%. With `COc1ccc2c(c1OC)C(=O)N(c1ccc(C)cc1)C2`, the activity change, negative = decreased viability was inactive: 8.55%. For `COc1ccc(Nc2oc(-c3ccc(OC)cc3)nc2C#N)cc1`, the activity change, negative = decreased viability is inactive: 5.14%. For the molecule `CCSc1nnc(NC(=O)C2CCCCC2)s1`, the activity change, negative = decreased viability is inactive: -2.19%.

As for `CC1CCN(CC(CS(=O)(=O)c2ccc([N+](=O)[O-])cc2)N2CCC(C)CC2)CC1` (stereo not given), the activity change, negative = decreased viability is inactive: 5.07%. As for `CSc1nc(N)n2nc(-c3ccccc3)cc2n1`, the figure is inactive: -17%. Next, `CCNC1=C(Cl)C(=O)c2ccccc2C1=O`: inactive: -23.1%; `Cc1scc(C(=O)N/N=C/c2ccc([N+](=O)[O-])o2)c1C`: inactive: -10.2%. Regarding `CC1=NNC(=O)/C1=C\c1cn(-c2ccccc2)nc1-c1ccc(F)cc1`, the activity change, negative = decreased viability is inactive: -11.5%. As to `Nc1ccc(-c2nc3ccc(C(=O)O)cc3s2)cc1`, the activity change, negative = decreased viability is inactive: -8.8%. Next, `CS(=O)(=O)c1nc(-c2ccc(F)cc2)cc(C(F)(F)F)n1`: inactive: 38.8%; `CCOC(=O)C1CCCN(C(=O)C2CCN(S(=O)(=O)CC)CC2)C1` (stereo not given): inactive: 3.54%. On to `C=CCOc1ccc(/C=C2\SC(=S)N(CCC(=O)O)C2=O)cc1`, for which the activity change, negative = decreased viability is inactive: -6.85%. Next, `Cc1nc(Sc2nnnn2C)c2c3c(sc2n1)CCC3`: inactive: 6.44%; `CN(C)c1ccc(NC(=S)c2ccccn2)cc1`: inactive: -38.5%. As for `O=C(CC(=O)c1ccccc1)Nc1ccccn1`, the figure is inactive: 3.43%.
